Results as given in publication PMC9957728.
Results are given in words; binding and its absence hold for the method and conditions named. Binding seen in cells or lysates may run through a third protein. These calls come from enrichment with a bait or labelling near it, and not all partners need be listed.

Target: T1, UBE2J1 overexpressed from lentivirus in DLD-1 cells (UniProt Q9Y385)
T1 sequence: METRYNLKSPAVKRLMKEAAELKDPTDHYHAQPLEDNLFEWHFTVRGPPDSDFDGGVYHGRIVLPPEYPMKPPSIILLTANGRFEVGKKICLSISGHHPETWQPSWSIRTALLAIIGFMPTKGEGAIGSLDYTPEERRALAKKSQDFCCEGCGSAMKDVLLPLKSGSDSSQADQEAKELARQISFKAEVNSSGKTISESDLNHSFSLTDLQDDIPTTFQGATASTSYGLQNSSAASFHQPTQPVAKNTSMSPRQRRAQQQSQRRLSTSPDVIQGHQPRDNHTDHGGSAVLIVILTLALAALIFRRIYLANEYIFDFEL
Assay: affinity purification with mass spectrometry; immunoprecipitation of UBE2J1 against IgG control from lysate of DLD-1 cells transfected with UBE2J1 overexpression lentivirus; silver staining and mass spectrometry

TRIM25 (RING-type E3 ubiquitin ligase), endogenous (from UniProt Q14258 1-630) (enzyme)
binding: binds
